Results deposited as PubChem BioAssay AID686937 (Drosophila RNAi Screening Center, 2013)
Aim: 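Genes in the fly needed for secretion of protein constitutively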 (primary screen). Cells: Drosophila S2 cells expressing secreted horseradish peroxidase. Knock-down reagent: long dsRNA against Drosophila genes. Timing: about 5.5 days (5 days dsRNA, then 12 h reporter induction). Conditions: reporter expression induced after 5 days of dsRNA, read 12 h later; inducer not stated. Measurement: 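Chemiluminescent measurement of peroxidase in the medium 12 h after reporter induction, following 5 days of dsRNA, given as a z-score per plate; higher means more secretion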. Direction: z-score: higher = more reporter secreted into medium.
In all, the deposit lists about 23,000 reagents; shown is a random part of those that have a named target and a result. 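Reduced-secretion tags in replicate 1 do not always agree with the z-scores; no criterion for assigning the tags was given.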 Names joined by + are all predicted targets of the reagent. Further read-outs or replicates are left out here. Not given: the amount of reagent.

no.	Target gene	amplicon	z-score, replicate 1	z-score, replicate 2
1	Jra	DRSC07447	0.87	0.62
2	RabGGTa	DRSC12189	0.26	0.17
3	fat-spondin	DRSC07617	0.21	0.39
4	yellow-g2	DRSC08338	0.3	0.14
5	CG6800	DRSC16119	0.44	0.47
6	CG14478	DRSC06450	0.24	0.23
7	CG2991	DRSC00559	0.14	0.27
8	fan	DRSC10930	0.29	0.32
9	Cec-Psi1	DRSC21956	0.47	0.38
10	CG15919	DRSC06594	0.7	0.66
11	Patj	DRSC08712	-6.03	-6.11
12	CG16995	DRSC00480	0.17	0.26
13	CG2861	DRSC18229	0.18	0.07
14	CG17118	DRSC02579	-0.13	0.01
15	CG31104	DRSC14658	0.24	0.29
16	Slc45-1	DRSC10427	0.45	0.03
17	MESR6	DRSC10720	0.15	0.4
18	Dci	DRSC08360	0.72	0.4
19	Nmda1	DRSC07479	0.26	0.17
20	chico	DRSC03531	0.23	0.09
21	TTLL15	DRSC15543	0	0.29
22	CG32081	DRSC09861	0.56	0.42
23	Zyx	DRSC17186	0.19	0.45
24	CG1213	DRSC12191	0.33	0.34
25	PGS1	DRSC16304	0.26	0.58
26	Cpr67B	DRSC10373	0.62	0.43
27	CG15020	DRSC08474	0.13	0.25
28	CCHa2	DRSC14835	0.56	0.35
29	angel	DRSC04670	0.15	0.16
30	angel	DRSC21326	1.54	1.43

Records listed so far whose gene name starts with A or a (2):
Target gene	amplicon	z-score, replicate 1	z-score, replicate 2
angel	DRSC04670	0.15	0.16
angel	DRSC21326	1.54	1.43

Next entries follow.
no.	Target gene	amplicon	z-score, replicate 1	z-score, replicate 2
31	csw	DRSC18756	-0.83	0.07
32	CG13033	DRSC09913	0.5	0.39
33	e(y)3	DRSC19450	-0.51	-0.12
34	SA2	DRSC08385	0.47	0.15
35	CG42397	DRSC09147	0.5	0.44
36	Cyp4d21	DRSC03305	0.05	0.3
37	Ir41a	DRSC04730	0.25	
38	Ir41a	DRSC04875	0.4	0.27
39	mAcon1	DRSC01853	0.75	0.44
40	CG12107	DRSC06102	0.46	0.48
41	comm3	DRSC09993	0.29	0.46
42	comm3	DRSC09994	0.03	0.22
43	comm3	DRSC09995	0.57	0.58
44	CG11679	DRSC19415	0.33	0.19
45	CG14537	DRSC02395	0.26	0.4
46	CG34334	DRSC20643	0.06	0.18
47	ND-SGDH	DRSC11102	0.01	0.12
48	Marcal1	DRSC02718	-0.31	0.1
49	slgA	DRSC20586	0.2	0.24
50	Acyp2	DRSC15336	-0.05	0.01
51	Pyroxd1	DRSC02098	0.13	0.3
52	CG2921	DRSC04324	-0.04	-0.07
53	atlas	DRSC04183	0.39	0.51
54	Agpat3	DRSC10445	0.13	0.22
55	FANCI	DRSC06416	0.29	0.13
56	CG3281	DRSC15470	0.03	0.45
57	CG17734	DRSC15256	0.44	0.25
58	Clbn	DRSC14404	0.37	0.42
59	Ptpmeg2	DRSC18277	0.39	0.25
60	Ptpmeg2	DRSC18278	0.47	0.52
61	Gyc32E	DRSC01154	0.55	0.38
62	Rsph1	DRSC02864	0.33	0.29
63	CG9577	DRSC20693	0.59	0.19
64	Vta1	DRSC08604	0.26	0.65
65	Vta1	DRSC22848	-0.04	-0.08
66	Dhit	DRSC07411	0.29	0.31
67	CG6576	DRSC10663	0.15	0.36
68	Ir54a + sub	DRSC06459	0.38	0.32
69	CG9452	DRSC11075	0.39	0.14
70	BomS3	DRSC21458	0.53	1.28
71	AP-2mu	DRSC14090	0.32	0.39
72	CG11594	DRSC08207	0.2	0.2
73	mge	DRSC08721	-0.07	0.19
74	Mgat4a	DRSC09326	0.34	0.51
75	Mgat4a	DRSC11070	0.04	0.12
76	vkg	DRSC03632	-0.1	0.05
77	CG5569	DRSC04514	0.22	-0.1
78	CG7916	DRSC01901	0.07	0.32
79	CG15308	DRSC17995	0.36	0.43
80	Mkrn1	DRSC11870	0.02	0.37
81	CG4712	DRSC06882	0.44	0.3
82	CG17568	DRSC02628	0.29	0.27
